Measured values from doi:10.1101/2023.10.16.562477.
Read-outs that look alike come from different tables or passages of the source. No constants are given. Whether binding was seen depends on the method and setting. For some assays here: In cells and extracts the contact can be indirect. Some entries that bind do so weakly or less than the wild type. For some assays here: Tags and fused reporters may be left off the sequences shown. One block for each molecule: values may come before it.

By UniProt entry, the sequences of proteins in these tests, tags left out. Where a name states a change or a piece, a line headed by the entry shows the natural chain unless it says otherwise.
UniProt P13569, whole entry, looked up, stated change not applied: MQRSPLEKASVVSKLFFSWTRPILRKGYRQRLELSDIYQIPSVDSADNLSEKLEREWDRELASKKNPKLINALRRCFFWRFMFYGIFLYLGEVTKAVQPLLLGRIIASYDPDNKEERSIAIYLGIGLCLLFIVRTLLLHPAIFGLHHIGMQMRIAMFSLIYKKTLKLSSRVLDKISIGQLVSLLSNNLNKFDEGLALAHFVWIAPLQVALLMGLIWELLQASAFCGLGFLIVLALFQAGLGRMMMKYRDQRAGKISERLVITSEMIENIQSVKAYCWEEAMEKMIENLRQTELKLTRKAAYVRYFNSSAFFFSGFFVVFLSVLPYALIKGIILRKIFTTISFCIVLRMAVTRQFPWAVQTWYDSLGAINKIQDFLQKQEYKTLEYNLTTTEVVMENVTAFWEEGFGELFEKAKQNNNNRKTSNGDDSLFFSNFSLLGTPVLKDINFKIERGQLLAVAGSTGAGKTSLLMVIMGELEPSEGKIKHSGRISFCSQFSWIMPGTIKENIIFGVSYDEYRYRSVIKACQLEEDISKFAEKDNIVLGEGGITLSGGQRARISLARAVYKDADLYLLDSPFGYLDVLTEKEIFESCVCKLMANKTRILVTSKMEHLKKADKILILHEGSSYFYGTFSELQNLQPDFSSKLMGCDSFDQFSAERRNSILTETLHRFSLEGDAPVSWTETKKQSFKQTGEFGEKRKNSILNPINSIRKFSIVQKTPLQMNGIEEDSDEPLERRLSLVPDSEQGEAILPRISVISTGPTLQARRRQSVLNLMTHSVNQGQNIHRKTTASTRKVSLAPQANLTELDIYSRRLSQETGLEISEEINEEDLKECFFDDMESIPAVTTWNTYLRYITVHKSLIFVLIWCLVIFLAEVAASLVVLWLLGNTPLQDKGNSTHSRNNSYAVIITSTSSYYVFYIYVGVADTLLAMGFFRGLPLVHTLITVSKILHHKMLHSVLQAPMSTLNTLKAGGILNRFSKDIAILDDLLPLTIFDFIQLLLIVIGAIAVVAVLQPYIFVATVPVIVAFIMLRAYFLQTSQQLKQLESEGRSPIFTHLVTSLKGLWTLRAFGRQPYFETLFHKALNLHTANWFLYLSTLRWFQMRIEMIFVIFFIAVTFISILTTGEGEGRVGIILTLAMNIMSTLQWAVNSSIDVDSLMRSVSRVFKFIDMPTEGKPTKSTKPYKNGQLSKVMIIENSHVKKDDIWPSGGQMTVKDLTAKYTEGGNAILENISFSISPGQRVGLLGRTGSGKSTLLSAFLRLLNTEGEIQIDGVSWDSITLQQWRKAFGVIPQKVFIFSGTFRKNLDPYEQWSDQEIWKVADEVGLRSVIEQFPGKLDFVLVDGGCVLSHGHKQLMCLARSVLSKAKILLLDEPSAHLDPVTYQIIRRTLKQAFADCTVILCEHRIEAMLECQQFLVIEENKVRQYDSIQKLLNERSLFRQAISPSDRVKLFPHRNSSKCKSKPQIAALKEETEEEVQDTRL
UniProt Q9UHD9, whole entry: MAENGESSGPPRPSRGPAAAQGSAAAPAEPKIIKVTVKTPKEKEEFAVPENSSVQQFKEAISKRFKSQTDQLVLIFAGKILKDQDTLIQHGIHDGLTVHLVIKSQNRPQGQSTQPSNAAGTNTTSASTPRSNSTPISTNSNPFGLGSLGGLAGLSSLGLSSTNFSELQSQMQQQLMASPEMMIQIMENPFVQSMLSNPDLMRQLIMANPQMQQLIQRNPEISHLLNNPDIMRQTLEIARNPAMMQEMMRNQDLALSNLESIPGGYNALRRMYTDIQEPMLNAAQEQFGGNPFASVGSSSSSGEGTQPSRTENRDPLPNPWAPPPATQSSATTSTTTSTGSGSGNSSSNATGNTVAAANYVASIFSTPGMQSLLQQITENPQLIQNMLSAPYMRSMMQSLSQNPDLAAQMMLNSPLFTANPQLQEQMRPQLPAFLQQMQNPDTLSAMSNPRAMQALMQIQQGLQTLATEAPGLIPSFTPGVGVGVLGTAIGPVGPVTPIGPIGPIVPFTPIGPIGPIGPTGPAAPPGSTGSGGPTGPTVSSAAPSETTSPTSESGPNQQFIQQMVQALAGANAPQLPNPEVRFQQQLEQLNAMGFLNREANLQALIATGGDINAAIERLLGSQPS

How the values were obtained:
[1] = target: HBH-ΔF508-CFTR-3HA (293MSR cells) (UniProt P13569); assay: ELISA
[2] = target: HBH-ΔF508-CFTR-3HA (BHK cells) (UniProt P13569); assay: pull-down
[3] = target: HBH-ΔF508-CFTR-3HA (293MSR cells) (UniProt P13569); assay: cross-linking + pull-down
[4] = target: HBH-ΔF508-CFTR-3HA (293MSR cells) (UniProt P13569); assay: cross-linking + pull-down; remark: listed apart in the source
[5] = target: HBH-ΔF508-CFTR-3HA (BHK cells) (UniProt P13569); assay: pull-down; remark: listed apart in the source

Molecule: endogenous UBQLN2 (from UniProt Q9UHD9 1-624)
binding [3]: binds
binding [4]: binds weakly

B1: Myc-HERC3 (enzyme, UniProt Q15034 1-1050)
chain: MLCWGYWSLGQPGISTNLQGIVAEPQVCGFISDRSVKEVACGGNHSVFLLEDGEVYTCGLNTKGQLGHEREGNKPEQIGALADQHIIHVACGESHSLALSDRGQLFSWGAGSDGQLGLMTTEDSVAVPRLIQKLNQQTILQVSCGNWHCLALAADGQFFTWGKNSHGQLGLGKEFPSQASPQRVRSLEGIPLAQVAAGGAHSFALSLSGAVFGWGMNNAGQLGLSDEKDRESPCHVKLLRTQKVVYISCGEEHTAVLTKSGGVFTFGAGSCGQLGHDSMNDEVNPRRVLELMGSEVTQIACGRQHTLAFVPSSGLIYAFGCGARGQLGTGHTCNVKCPSPVKGYWAAHSGQLSARADRFKYHIVKQIFSGGDQTFVLCSKYENYSPAVDFRTMNQAHYTSLINDETIAVWRQKLSEHNNANTINGVVQILSSAACWNGSFLEKKIDEHFKTSPKIPGIDLNSTRVLFEKLMNSQHSMILEQILNSFESCLIPQLSSSPPDVEAMRIYLILPEFPLLQDSKYYITLTIPLAMAILRLDTNPSKVLDNWWSQVCPKYFMKLVNLYKGAVLYLLRGRKTFLIPVLFNNYITAALKLLEKLYKVNLKVKHVEYDTFYIPEISNLVDIQEDYLMWFLHQAGMKARPSIIQDTVTLCSYPFIFDAQAKTKMLQTDAELQMQVAVNGANLQNVFMLLTLEPLLARSPFLVLHVRRNNLVGDALRELSIHSDIDLKKPLKVIFDGEEAVDAGGVTKEFFLLLLKELLNPIYGMFTYYQDSNLLWFSDTCFVEHNWFHLIGITCGLAIYNSTVVDLHFPLALYKKLLNVKPGLEDLKELSPTEGRSLQELLDYPGEDVEETFCLNFTICRESYGVIEQKKLIPGGDNVTVCKDNRQEFVDAYVNYVFQISVHEWYTAFSSGFLKVCGGKVLELFQPSELRAMMVGNSNYNWEELEETAIYKGDYSATHPTVKLFWETFHEFPLEKKKKFLLFLTGSDRIPIYGMASLQIVIQSTASGEEYLPVAHTCYNLLDLPKYSSKEILSARLTQALDNYEGFSLA
binding [5]: binds

Second part, the molecule after the results:

binding [1]: binds
Molecule: FLAG-UBQLN2 (293MSR cells) (from UniProt Q9UHD9 1-624)

binding [2]: binds
Molecule: FLAG-UBQLN2 (BHK cells) (from UniProt Q9UHD9 1-624)
